Test results reported in the RNAGym collection of RNA variant scans (doi:10.1126/science.aae0568).
This sample is rich in variants without activity.

B1: tRNA (parent)
chain: GUUCCGUUGGCGUAAUGGUAACGCGUCUCCCUCCUAAGGAGAAGACUGCGGGUUCGAGUCCCGUACGGAACG

Variants of: B1
Test: yeast fitness relative to wild type (ratio to wild type); higher = fitter; tRNA-Arg(CCU), competitive growth, 37 C, YPD
Procedure, shortened: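 Genotype frequency changes were the basis for Darwinian fitness relative to wild type. The frequencies came from 100-nucleotide paired-end sequencing of gene amplicons from the start population and each end population of pooled yeast strains with tRNA-Arg(CCU) gene variants at the native locus. Competition ran in YPD at 37°C for 24 hours in six replicates, genotypes needed ≥ 100 starting reads, and estimates < 0.5 were set to 0.5.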

| Variant | yeast fitness |
| --- | --- |
| A14G A15C G17A U32G A36U | ≤ 0.5 |
| G9A C22A U28A C62U C66A | ≤ 0.5 |
| U7G C29U C31U A37G G38C A70G | ≤ 0.5 |
| A37C C62A | 0.874 |
| U16A C29G A36C | ≤ 0.5 |
| C5U U8C C29U A43G G48C C55A | ≤ 0.5 |
| G17C U32C A42U C61U | ≤ 0.5 |
| C5A A20C C24A G67U | ≤ 0.5 |
| G23C C29A A37G | ≤ 0.5 |
| A14U C29G A65U | ≤ 0.5 |
| C11G A20U U26G U47G C61U | ≤ 0.5 |
| C11G G23C A36G A37G | 0.774 |
| A21C U59C A65C | ≤ 0.5 |
| U28A G50C C66A | ≤ 0.5 |
| C24A G39C A70U | ≤ 0.5 |
| G9C C27U A36U G51A | ≤ 0.5 |
| A20C C30A C55G | 0.557 |
| U7G A14U | 0.675 |
| U13C A57U U59A A69G | 0.561 |
| U8A A45U G50C | ≤ 0.5 |
| G25C A57C C60A | ≤ 0.5 |
| U3C A37C A57U | ≤ 0.5 |
| C22G C29G C46U C66U | ≤ 0.5 |
| U3A C30G C66G | ≤ 0.5 |

| Variant | yeast fitness |
| --- | --- |
| U13A U59C C66A | ≤ 0.5 |
| U7C C11G U13A C29U A69U | ≤ 0.5 |
| C24G A36C A42U A43G | ≤ 0.5 |
| A14C C27G C46G C60G A65G | ≤ 0.5 |
| C4G A15U C33A G52C C55G | ≤ 0.5 |
| C24G U26A C29G U32A | 0.516 |
| C30A C61A A65C | 0.578 |
| C5U C22U C27U A42G C55A C60A A70U | 0.57 |
| C4U C5G A14C G38C G67C | ≤ 0.5 |
| U13A A14U C24G U28G C31U A45C | ≤ 0.5 |
| A57C G63A A70C | ≤ 0.5 |
| G10A C27G U35A A45U G67A | ≤ 0.5 |
| U28A G67C | 0.774 |
| C5G U8C C11A U26C U35C G50C G52A | 0.634 |
| U3G C5G A20C A43C | 0.557 |
| A20U A42C G50C G67C | ≤ 0.5 |
| C24G U59A A70U | ≤ 0.5 |
| U35C G67A G68U | ≤ 0.5 |
| A20U C33A G41C G44A G50C G68A | ≤ 0.5 |
| A21U G56C G63A U64C G67C A69U | ≤ 0.5 |
| C4A C31G A43U G48A A65G | ≤ 0.5 |
| U2G G17A G23A G38C A40G A57G | ≤ 0.5 |
| C29G A36U A37U | ≤ 0.5 |
| U19C G25A U28A A42G G56C | ≤ 0.5 |

| Variant | yeast fitness |
| --- | --- |
| A20C G44C A57U | ≤ 0.5 |
| C4U A40U G48C U53G | ≤ 0.5 |
| U26A C55U | 0.65 |
| U16C C24U C29G C49U A65U | ≤ 0.5 |
| G6C C27G C62U A65U | ≤ 0.5 |
| A21C G50A G67A | ≤ 0.5 |
| U16C G25U U32C A69C | ≤ 0.5 |
| A14G A57C G67C | ≤ 0.5 |
| C49A G63C A69G | ≤ 0.5 |
| U7G A14C G48A U53C C60A | ≤ 0.5 |
| G9A A40C G67U | ≤ 0.5 |
| A45U A65C G68A | 0.567 |
| C5U U13G G44A G58C | ≤ 0.5 |
| U13A U54C C66U G68C A69U | ≤ 0.5 |
| C11G A14G G17A | ≤ 0.5 |
| C11U A21G C34A A42U | ≤ 0.5 |
| A21G G23A A57C A65C A70C | ≤ 0.5 |
| U32G C46G | 0.757 |
| A20C C24U G56C C60G | ≤ 0.5 |
| C5U C24A A45G | ≤ 0.5 |
| C27G G39A G52A C61G | ≤ 0.5 |
| A15G C22U A36U | ≤ 0.5 |
| C11A A14C C34A G67A A70G | ≤ 0.5 |
| C46G C62A | 0.873 |

| Variant | yeast fitness |
| --- | --- |
| G9A C30A G38A A42C U53A C62G | ≤ 0.5 |
| C11G C29U U35C C66A | ≤ 0.5 |
| G10C C24A | ≤ 0.5 |
| C4U C24G U26A U28G C66U | ≤ 0.5 |
| U2G C11G A36C C61G | ≤ 0.5 |
| A20U C30G C33A G50A G52A C60U C61G | ≤ 0.5 |
| U13C C30G C46G G52C G68C | ≤ 0.5 |
| C27G C49G U59C | ≤ 0.5 |
| C5U A15U G17C U26C | ≤ 0.5 |
| A21C G67C A70G | ≤ 0.5 |
| A45U G68A | 0.926 |
| G10A C27U A40U | ≤ 0.5 |
| G12C A14C A15G A37C A69C | ≤ 0.5 |
| C11G A15G C34A | ≤ 0.5 |
| A42C G68A | 0.898 |
| G44A U64G | 0.694 |
| C4G C30A C66U A69C | ≤ 0.5 |
| C22G C31G U35A A42U C49U C55G C61U A65C | ≤ 0.5 |
| C5U C34A G56A | ≤ 0.5 |
| U19A C31A G41C A45G G50C G67A A69G | ≤ 0.5 |
| G12A A21U C66G | ≤ 0.5 |
| A21U C46G C62A | ≤ 0.5 |
| C5U G17C C29U A57C | ≤ 0.5 |
| A15U C62G A69U | ≤ 0.5 |

| Variant | yeast fitness |
| --- | --- |
| G51C U53A A65U | ≤ 0.5 |
| A20C C29G G58A C61G | ≤ 0.5 |
| U7G G58A C61A | ≤ 0.5 |
| C11A G17C C49A A65C | ≤ 0.5 |
| U16G A42G G48A | ≤ 0.5 |
| U7C C31G G41A G52C C60U C62G C66G | ≤ 0.5 |
| G6A C30G A70G | ≤ 0.5 |
| G10C U35G A43C U47C C55U C62U A69C | ≤ 0.5 |
| U35G G44A U59C | ≤ 0.5 |
| U16C C33U A36U A42U U64C | ≤ 0.5 |
| U8C C24A | 0.616 |
| C11U G12A A15C C27U A69U | ≤ 0.5 |
| A37G G41C U47A | ≤ 0.5 |
| U19G A37G U47A C66U A69U | ≤ 0.5 |
| U2G G10C U59A | ≤ 0.5 |
| C11U G23A U35C | 0.573 |
| G9C C27U C33G G50A A57G G68C | ≤ 0.5 |
| C5G U13A G23A G38A | ≤ 0.5 |
| U2A C5U G39C G67U | ≤ 0.5 |
| C5G U32A G56A | 0.634 |
| A21U U53C U54G | ≤ 0.5 |
| C4A G23C C34G A36U U54G C62G | ≤ 0.5 |
| A15C C31U C66A A69U | ≤ 0.5 |
| U2A C4G G9A G44A | ≤ 0.5 |

| Variant | yeast fitness |
| --- | --- |
| C11U A43G A57U | 0.568 |
| C5G A21G C27G C34G A43C C46G C66U A70G | ≤ 0.5 |
| U3G C11G U13A C30G A70G | ≤ 0.5 |
| U7G A14G A65U | ≤ 0.5 |
| C29A A37G A45C G63C | ≤ 0.5 |
| G18C C31A C34A G44A G52C C61G | ≤ 0.5 |
| C24A A45U C55G | ≤ 0.5 |
| A21U A37C A45U | ≤ 0.5 |
| U28G G38C A40G U59C | ≤ 0.5 |
| G9A U26A A43U U64C A65U | ≤ 0.5 |
| A37G C55U A65G | ≤ 0.5 |
| C11U C24G C30A A40C | ≤ 0.5 |
| C29A A57U | ≤ 0.5 |
| G9C G44C C61U | 0.584 |
| C4A A14U C30A | ≤ 0.5 |
| C4A A21G C24G U26C C31U | ≤ 0.5 |
| C30A G39A | 0.833 |
| C5U A15U A45U G68C | ≤ 0.5 |
| C5G G6C U26G | ≤ 0.5 |
| C4A A14G C46A G51A U53A C62A G68A | ≤ 0.5 |
| U2G U28A C30U C66U A69U | ≤ 0.5 |
| C4U U53C C61G G67A A69C | ≤ 0.5 |
| G18A U35A A40G A69C | ≤ 0.5 |
| A20U A43G A70U | 0.661 |

| Variant | yeast fitness |
| --- | --- |
| C22G C27G C31U U59C C62U G68U | ≤ 0.5 |
| U2A G10A U13C A37U C66G | ≤ 0.5 |
| C5G C27G C33U C49U G56C | ≤ 0.5 |
| C27A G39C C55U A65C | ≤ 0.5 |
| U26C G58C G63C | ≤ 0.5 |
| C11U C30U C55G G63A | ≤ 0.5 |
| C5A A15C U35G | ≤ 0.5 |
| U16A G67A | 0.926 |
| C4U C22G C30U A37G A43U G67A | ≤ 0.5 |
| A20G A40G A42G | ≤ 0.5 |
| U32C C33U C62U A65G A70U | ≤ 0.5 |
| G10C A40U A42G A45G G51C C61U | ≤ 0.5 |
| A42C C49G G50A | 0.507 |
| U28C A45U C66A | ≤ 0.5 |
| C5G G6A A42U | ≤ 0.5 |
| U16C C34G C62U | ≤ 0.5 |
| U3A C11G C31G C49U | ≤ 0.5 |
| G18A C27U C31A A69G | ≤ 0.5 |
| U13A A15G G48A G63A A65C | ≤ 0.5 |
| C5A U28C U35C C66U | ≤ 0.5 |
| G6A A37C | 0.824 |
| C33A A43C A65U | ≤ 0.5 |
| U19A C30G A43C A69C | ≤ 0.5 |
